According to publication PMC13649568:
No constants are given. Whether binding was seen depends on the method and setting. Binding seen in cells or lysates may run through a third protein. Some results given as binding are weak or reduced against the parent protein; the word gives no strength. Sequences can lack the tags named with a protein.

Target: T1, FLAG-tagged SESN3 (human (endogenous in Jurkat)) (UniProt P58005)
T1 sequence: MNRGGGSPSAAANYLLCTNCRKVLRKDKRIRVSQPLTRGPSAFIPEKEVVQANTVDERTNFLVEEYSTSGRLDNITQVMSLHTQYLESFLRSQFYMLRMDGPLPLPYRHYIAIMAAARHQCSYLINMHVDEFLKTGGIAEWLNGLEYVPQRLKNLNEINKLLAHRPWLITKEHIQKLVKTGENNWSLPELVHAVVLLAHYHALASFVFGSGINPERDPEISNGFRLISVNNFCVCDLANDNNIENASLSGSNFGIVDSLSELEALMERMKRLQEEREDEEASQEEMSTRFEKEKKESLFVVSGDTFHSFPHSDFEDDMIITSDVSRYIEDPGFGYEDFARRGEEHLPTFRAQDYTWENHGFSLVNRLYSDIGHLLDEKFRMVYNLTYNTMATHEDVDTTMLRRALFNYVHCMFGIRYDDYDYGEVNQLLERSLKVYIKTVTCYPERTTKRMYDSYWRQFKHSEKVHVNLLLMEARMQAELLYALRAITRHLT
Assay: co-IP; Lysate of endogenously FLAG-tagged SESN3 Jurkat cells, anti-FLAG M2 magnetic beads, 2 h at 4 °C, eluted with FLAG peptide, western blot for WDR59. Lysis buffer: 25 mM Tris-HCl pH 7.5, 150 mM NaCl, 1 mM EDTA, 0.5% NP-40, 5% glycerol. Before lysis the cells were kept 1 h in RPMI (fed) or HBSS (starved), with or without the indicated free amino acid at 500 µM

B1: GATOR2 complex subunit, WDR59 (protein, UniProt Q6PJI9 1-974)
chain: MAARWSSENVVVEFRDSQATAMSVDCLGQHAVLSGRRFLYIVNLDAPFEGHRKISRQSKWDIGAVQWNPHDSFAHYFAASSNQRVDLYKWKDGSGEVGTTLQGHTRVISDLDWAVFEPDLLVTSSVDTYIYIWDIKDTRKPTVALSAVAGASQVKWNKKNANCLATSHDGDVRIWDKRKPSTAVEYLAAHLSKIHGLDWHPDSEHILATSSQDNSVKFWDYRQPRKYLNILPCQVPVWKARYTPFSNGLVTVMVPQLRRENSLLLWNVFDLNTPVHTFVGHDDVVLEFQWRKQKEGSKDYQLVTWSRDQTLRMWRVDSQMQRLCANDILDGVDEFIESISLLPEPEKTLHTEDTDHQHTASHGEEEALKEDPPRNLLEERKSDQLGLPQTLQQEFSLINVQIRNVNVEMDAADRSCTVSVHCSNHRVKMLVKFPAQYPNNAAPSFQFINPTTITSTMKAKLLKILKDTALQKVKRGQSCLEPCLRQLVSCLESFVNQEDSASSNPFALPNSVTPPLPTFARVTTAYGSYQDANIPFPRTSGARFCGAGYLVYFTRPMTMHRAVSPTEPTPRSLSALSAYHTGLIAPMKIRTEAPGNLRLYSGSPTRSEKEQVSISSFYYKERKSRRWKSKREGSDSGNRQIKAAGKVIIQDIACLLPVHKSLGELYILNVNDIQETCQKNAASALLVGRKDLVQVWSLATVATDLCLGPKSDPDLETPWARHPFGRQLLESLLAHYCRLRDVQTLAMLCSVFEAQSRPQGLPNPFGPFPNRSSNLVVSHSRYPSFTSSGSCSSMSDPGLNTGGWNIAGREAEHLSSPWGESSPEELRFGSLTYSDPRERERDQHDKNKRLLDPANTQQFDDFKKCYGEILYRWGLREKRAEVLKFVSCPPDPHKGIEFGVYCSHCRSEVRGTQCAICKGFTFQCAICHVAVRGSSNFCLTCGHGGHTSHMMEWFRTQEVCPTGCGCHCLLESTF
With B1 the binding was “binds”.
